{
  "source": "paper PMC12591160",
  "about": "“Polyadenylation Complex CFII Recognizes Downstream Cis‐element for Pre‐mRNA Polyadenylation Through Interaction with an RNA‐Binding Protein in Arabidopsis”",
  "binders": {"B1": {"name": "FPA (yeast two-hybrid and three-hybrid fusion) (protein, UniProt Q8LPQ9 1-901)", "chain": "MALSMKPFRADDSGFQSNNLWVGSLTPETTESDLTELFGRYGDIDRITVYSSRGFAFIYYRHVEEAVAAKEALQGANLNGSQIKIEYARPAKPCKSLWVGGIGPNVSKDDLEEEFSKFGKIEDFRFLRERKTAFIDYYEMDDALQAKSMNGKPMGGSFLRVDFLRSQAPKKEQWAGSYDNRNGNMNHKPQYPHSYEDFKGDVQPSKVLWIGFPPTATQCNDEQILHNAMILFGEIERVKSYPSRNFALVEFRSAEEARQCKEGLQGRLFNNPRIKIMYSNDELPPEQDDTSFYSGMKRSRTDMFNNDPSFVSSPHSTGIPGSMRPLRGTNERSYNGAEYNDVVGKEPNWRRPSANGTGILPSPTGPGILPSPAQGTRRPMRSNPDSWEGYDPAQLVRESKRTRRDGSVDGFTPMGVDERSFGRGSVAARPIRGPPDSDHIWRGMIAKGGTPVCCARCVPMGKGIETKLPEVVNCSARTDLNMLAKHYAVAIGCEIVFFVPDREEDFASYTEFLRYLSSKDRAGVAKLDDGTTLFLVPPSDFLTDVLQVTRQERLYGVVLKLPPPAVPVTASYRQESQSNPLHYMDQARDSPANASHSLYPPRENYIRGAPEHLTAASKPSVSEPLRIPNNAAPQAGVSLTPELLATLASILPATSQPAAPESHQPMSGPSTVVSTAHQSNGLYNGEAPSQAWKRGPQTVHDASNQSFQQYGNQYTPAGQLPPPPSRYPPASNNPNYTSGMVHGNMQYQSQSVNMPQLSPLPNMPHNNYSMYTQGSSNHPVSQPMVQQYQPEASMPNQNYGPIPSYQQANFHGVTTNQAQNLNPSQFQAAMQPPADKANLEPQNQALRLQPMISGDGQGTTDGEVDKNQRYQSTLQFAANLLLQIQQKQQQQSSGTPAGQGP"}, "B2": {"name": "full-length FPA tagged with GFP or RFP (N. benthamiana) (protein, UniProt Q8LPQ9 1-901)", "chain": "MALSMKPFRADDSGFQSNNLWVGSLTPETTESDLTELFGRYGDIDRITVYSSRGFAFIYYRHVEEAVAAKEALQGANLNGSQIKIEYARPAKPCKSLWVGGIGPNVSKDDLEEEFSKFGKIEDFRFLRERKTAFIDYYEMDDALQAKSMNGKPMGGSFLRVDFLRSQAPKKEQWAGSYDNRNGNMNHKPQYPHSYEDFKGDVQPSKVLWIGFPPTATQCNDEQILHNAMILFGEIERVKSYPSRNFALVEFRSAEEARQCKEGLQGRLFNNPRIKIMYSNDELPPEQDDTSFYSGMKRSRTDMFNNDPSFVSSPHSTGIPGSMRPLRGTNERSYNGAEYNDVVGKEPNWRRPSANGTGILPSPTGPGILPSPAQGTRRPMRSNPDSWEGYDPAQLVRESKRTRRDGSVDGFTPMGVDERSFGRGSVAARPIRGPPDSDHIWRGMIAKGGTPVCCARCVPMGKGIETKLPEVVNCSARTDLNMLAKHYAVAIGCEIVFFVPDREEDFASYTEFLRYLSSKDRAGVAKLDDGTTLFLVPPSDFLTDVLQVTRQERLYGVVLKLPPPAVPVTASYRQESQSNPLHYMDQARDSPANASHSLYPPRENYIRGAPEHLTAASKPSVSEPLRIPNNAAPQAGVSLTPELLATLASILPATSQPAAPESHQPMSGPSTVVSTAHQSNGLYNGEAPSQAWKRGPQTVHDASNQSFQQYGNQYTPAGQLPPPPSRYPPASNNPNYTSGMVHGNMQYQSQSVNMPQLSPLPNMPHNNYSMYTQGSSNHPVSQPMVQQYQPEASMPNQNYGPIPSYQQANFHGVTTNQAQNLNPSQFQAAMQPPADKANLEPQNQALRLQPMISGDGQGTTDGEVDKNQRYQSTLQFAANLLLQIQQKQQQQSSGTPAGQGP"}, "B3": {"name": "CPSF100 with MYC tag (Arabidopsis protoplasts) (protein, UniProt Q9LKF9 1-739)", "chain": "MGTSVQVTPLCGVYNENPLSYLVSIDGFNFLIDCGWNDLFDTSLLEPLSRVASTIDAVLLSHPDTLHIGALPYAMKQLGLSAPVYATEPVHRLGLLTMYDQFLSRKQVSDFDLFTLDDIDSAFQNVIRLTYSQNYHLSGKGEGIVIAPHVAGHMLGGSIWRITKDGEDVIYAVDYNHRKERHLNGTVLQSFVRPAVLITDAYHALYTNQTARQQRDKEFLDTISKHLEVGGNVLLPVDTAGRVLELLLILEQHWSQRGFSFPIYFLTYVSSSTIDYVKSFLEWMSDSISKSFETSRDNAFLLRHVTLLINKTDLDNAPPGPKVVLASMASLEAGFAREIFVEWANDPRNLVLFTETGQFGTLARMLQSAPPPKFVKVTMSKRVPLAGEELIAYEEEQNRLKREEALRASLVKEEETKASHGSDDNSSEPMIIDTKTTHDVIGSHGPAYKDILIDGFVPPSSSVAPMFPYYDNTSEWDDFGEIINPDDYVIKDEDMDRGAMHNGGDVDGRLDEATASLMLDTRPSKVMSNELIVTVSCSLVKMDYEGRSDGRSIKSMIAHVSPLKLVLVHAIAEATEHLKQHCLNNICPHVYAPQIEETVDVTSDLCAYKVQLSEKLMSNVIFKKLGDSEVAWVDSEVGKTERDMRSLLPMPGAASPHKPVLVGDLKIADFKQFLSSKGVQVEFAGGGALRCGEYVTLRKVGPTGQKGGASGPQQILIEGPLCEDYYKIRDYLYSQFYLL"}},
  "key": {"[1]": {"molecular_target": "T1, PCFS4 (yeast two-hybrid fusion; bridge protein of the three-hybrid) (Arabidopsis thaliana) (UniProt Q0WPF2)", "T1 sequence": "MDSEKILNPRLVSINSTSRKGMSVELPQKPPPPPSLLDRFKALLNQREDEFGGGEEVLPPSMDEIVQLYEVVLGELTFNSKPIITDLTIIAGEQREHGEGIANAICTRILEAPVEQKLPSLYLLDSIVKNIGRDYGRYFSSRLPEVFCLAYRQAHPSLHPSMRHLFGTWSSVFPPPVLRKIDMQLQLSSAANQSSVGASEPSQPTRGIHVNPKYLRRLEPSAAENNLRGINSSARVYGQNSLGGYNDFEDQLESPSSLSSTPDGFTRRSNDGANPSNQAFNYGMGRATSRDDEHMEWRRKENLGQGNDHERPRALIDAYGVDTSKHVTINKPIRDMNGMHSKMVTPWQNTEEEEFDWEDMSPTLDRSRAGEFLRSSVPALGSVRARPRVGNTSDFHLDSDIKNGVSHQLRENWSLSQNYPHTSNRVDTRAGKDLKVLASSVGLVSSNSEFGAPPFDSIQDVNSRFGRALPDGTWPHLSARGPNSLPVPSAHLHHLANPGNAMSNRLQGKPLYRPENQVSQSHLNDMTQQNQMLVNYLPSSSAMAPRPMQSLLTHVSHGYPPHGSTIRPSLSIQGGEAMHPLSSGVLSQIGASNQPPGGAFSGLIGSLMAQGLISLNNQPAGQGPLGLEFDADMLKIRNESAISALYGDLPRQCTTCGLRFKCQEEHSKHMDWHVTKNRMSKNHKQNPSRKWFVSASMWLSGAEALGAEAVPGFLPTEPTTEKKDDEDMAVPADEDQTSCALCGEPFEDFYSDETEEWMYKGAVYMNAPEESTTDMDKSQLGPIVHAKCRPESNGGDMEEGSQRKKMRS", "experiment": "two-hybrid; pGADT7 (AD) and pGBKT7 (BD) plasmids co-transformed into yeast AH109; growth on SD/-Leu/-Trp/-His/-Ade"}, "[2]": {"molecular_target": "T2, full-length PCFS4 tagged with GFP or RFP (N. benthamiana) (Arabidopsis thaliana) (UniProt Q0WPF2)", "T2 sequence": "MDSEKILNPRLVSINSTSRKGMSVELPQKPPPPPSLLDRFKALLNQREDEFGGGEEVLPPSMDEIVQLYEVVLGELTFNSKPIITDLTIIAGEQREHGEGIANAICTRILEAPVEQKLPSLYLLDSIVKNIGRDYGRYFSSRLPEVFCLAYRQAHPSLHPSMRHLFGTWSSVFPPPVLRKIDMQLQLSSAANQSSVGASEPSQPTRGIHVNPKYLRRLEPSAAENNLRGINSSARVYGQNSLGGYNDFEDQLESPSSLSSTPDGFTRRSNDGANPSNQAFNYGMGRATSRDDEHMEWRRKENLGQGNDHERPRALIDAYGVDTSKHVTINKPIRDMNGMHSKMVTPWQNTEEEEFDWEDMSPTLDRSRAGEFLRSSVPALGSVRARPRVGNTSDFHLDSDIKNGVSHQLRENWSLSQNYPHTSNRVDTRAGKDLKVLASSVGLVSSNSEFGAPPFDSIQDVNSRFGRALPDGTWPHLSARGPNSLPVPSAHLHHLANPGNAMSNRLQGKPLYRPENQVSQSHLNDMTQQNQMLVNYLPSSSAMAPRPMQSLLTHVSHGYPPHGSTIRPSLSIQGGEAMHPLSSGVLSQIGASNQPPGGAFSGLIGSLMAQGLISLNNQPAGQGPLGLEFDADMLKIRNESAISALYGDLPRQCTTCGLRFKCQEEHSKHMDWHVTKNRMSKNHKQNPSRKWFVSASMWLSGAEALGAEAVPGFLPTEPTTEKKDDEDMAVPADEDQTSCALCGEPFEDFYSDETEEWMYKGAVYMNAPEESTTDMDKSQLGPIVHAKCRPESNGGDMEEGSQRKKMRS", "experiment": "FRET or BRET; acceptor photobleaching FRET of two co-expressed GFP- (donor) and RFP- (acceptor) tagged proteins in N. benthamiana leaf cells, 48 h after infiltration; at least 8 cells"}, "[3]": {"molecular_target": "T3, FPA with a FLAG tag (Arabidopsis protoplasts) (Arabidopsis thaliana) (UniProt Q8LPQ9)", "T3 sequence": "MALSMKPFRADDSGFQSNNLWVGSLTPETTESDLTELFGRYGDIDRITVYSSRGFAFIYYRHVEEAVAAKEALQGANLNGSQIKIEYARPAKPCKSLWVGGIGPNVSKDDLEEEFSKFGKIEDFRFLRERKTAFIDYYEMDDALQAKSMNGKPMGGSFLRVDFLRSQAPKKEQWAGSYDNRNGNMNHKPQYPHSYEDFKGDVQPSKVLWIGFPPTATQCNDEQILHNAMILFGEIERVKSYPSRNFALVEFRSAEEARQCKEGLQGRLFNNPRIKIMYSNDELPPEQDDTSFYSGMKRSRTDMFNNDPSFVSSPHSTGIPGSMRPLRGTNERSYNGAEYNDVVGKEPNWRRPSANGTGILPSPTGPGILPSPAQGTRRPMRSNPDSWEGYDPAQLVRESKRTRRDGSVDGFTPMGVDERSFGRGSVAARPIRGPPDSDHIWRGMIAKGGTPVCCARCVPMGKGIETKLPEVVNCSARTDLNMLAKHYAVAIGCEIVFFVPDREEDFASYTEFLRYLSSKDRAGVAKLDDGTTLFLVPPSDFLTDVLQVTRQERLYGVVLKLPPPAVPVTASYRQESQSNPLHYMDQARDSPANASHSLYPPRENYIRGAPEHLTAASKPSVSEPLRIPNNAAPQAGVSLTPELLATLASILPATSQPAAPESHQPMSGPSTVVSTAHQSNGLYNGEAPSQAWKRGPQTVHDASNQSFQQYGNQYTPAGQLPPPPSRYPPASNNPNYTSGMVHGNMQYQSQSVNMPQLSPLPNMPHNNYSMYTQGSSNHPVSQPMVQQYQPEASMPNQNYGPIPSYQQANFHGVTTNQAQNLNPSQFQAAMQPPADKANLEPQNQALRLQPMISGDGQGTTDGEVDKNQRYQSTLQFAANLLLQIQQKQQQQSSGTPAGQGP", "experiment": "co-IP; Arabidopsis protoplasts co-transformed with FLAG-tagged FPA and a MYC-tagged protein; lysate (150 mM NaCl, 0.2% Triton X-100, pH 7.4) on anti-FLAG M2 magnetic beads, 2 h at 4 °C; blots with anti-FLAG and anti-MYC"}},
  "note": "Results are given in words; binding and its absence hold for the method and conditions named. For part of these data: Binding seen in cells or lysates may run through a third protein. Some entries that bind do so weakly or less than the wild type. Where a sequence is shown, tags or fusion partners need not be part of it.",
  "data": [
    {"binder": "B1", "values": [
      {"measurement": "binding", "setting": "[1]", "result": "binds"}
    ]},
    {"binder": "B2", "values": [
      {"measurement": "binding", "setting": "[2]", "result": "binds"}
    ]},
    {"binder": "B3", "values": [
      {"measurement": "binding", "setting": "[3]", "result": "no binding"}
    ]}
  ]
}
